Patent US8048869B2, “Pharmaceutical composition for use in hormone replacement therapy” (Pantarhei Bioscience B.V., priority 2001, dated 2011)
For some assays here: For at least one compound, name, drawing or mass did not settle the structure. Some of these results come from one statement about several compounds together.

Legend:
liver = settings: cited from earlier work
[1] = system: morphine-dependent ovariectomized (OVX) rat; assay: Morphine-dependent OVX rat hot flush model, naloxone-induced tail skin temperature rise; format: in vivo; settings: po, 0.3 mg/kg/day, single dose level tested (FIG. 3)
Experimental: The morphine-dependent ovariectomized (OVX) rat was used as a model for postmenopausal hot flush. The potency of estetrol (E4) to prevent tail skin temperature rises, normally accompanied by a drop in core body temp arature, after naloxone-induced opiate withdrawel was tested. 17α-ethinyl-estradiol (EE) and vehicle. (hydroxy propyl-beta-cyclodextrin 20% wt/vol) served as controls in this bioassay.
The morphine-dependent ovariectomized (OVX) rat model has been proposed by several investigators (Katovich et al, 1986, Maturitas, 67-76; Merchenthaler et al. 1998, Maturitas, 307-316) as an animal model for the hot flush. During opiate withdrawal with the morphine antagonist naloxone, tail skin temperature (TST) rises and this rise is accompanied by a drop in core body temperature. In addition, the temperature changes are accompanied by surges in LH and a transient tachycardia. These events are similar in magnitude and temporal nature to those observed in the menopausal hot flush.
Three days prior to the commencement of dosing, animals were anesthetized using a ketamine/xylazine anesthetic mixture and underwent a bilateral ovariectomy. […]
For the hot flush manipulations the animals were placed in a test cage. […] The tail-skin temperature was recorded until it was stable and the animals were then injected with naloxone HCl (1 mg/kg). […]

In the case of `CC/C(=C(/CC)c1ccc(O)cc1)c1ccc(O)cc1` [DES, diethylstilbestrol], the “activity in the liver relative to estrone sulfate, in relation to FSH-secretion inhibitory activity” value (liver) is listed as 4-18 times more active.
For `C#C[C@]1(O)CC[C@H]2[C@@H]3CCc4cc(O)ccc4[C@H]3CC[C@@]21C` [EE, 17α-ethinyl estradiol, reference compound], the “effect on naloxone-induced tail skin temperature (TST) increases” value [1] was “prevented the naloxone-induced TST increases”.
